# Experimental data reported in the supplement of paper PMC8728848.
# The list shows a part of the results.
# B1: AFL6 (Aspergillus fumigatus), Q4WKJ1 (protein)
# chain: MSFHLTAEDIRIEDGHRLVARLRNADGDLQDASIDLNTCLGNDNGHFQWDGVDFSHSAQDVHFAIEGGGQVPVLRAQLANQDGEFQDADVNLSERIENINGEFVFH
# Columns and labels:
# Test in all cases: glycan array binding signal (z-score within array); higher = stronger binding
# Details in all cases: glycan notation: IUPAC condensed, linker removed
# [1] = molecular target: Gal(b1-4)GalNAc(b1-3)[Fuc(a1-2)]Gal(b1-4)GlcNAc
# Method in brief: (§1)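 Glycan array data came from 3228 arrays in the Consortium for Functional Glycomics database, and only arrays with an available protein sequence were kept. Glycan names were put into IUPAC-condensed notation, and columns mapping to the same glycan were averaged. The binding signal is a within-array Z-score, averaged across arrays of one protein sequence run at different concentrations or buffers and across linkers. A negative Z-score can be read as non-binding.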
# Gal(b1-4)Glc = molecular target: Gal(b1-4)Glc
# Method in brief: as §1
# Gal(b1-4)Glc6S = molecular target: Gal(b1-4)Glc6S
# Method in brief: as §1
# Gal(b1-4)GlcNAc = molecular target: Gal(b1-4)GlcNAc
# Method in brief: as §1
# [2] = molecular target: Gal(b1-4)GlcNAc(a1-6)Gal(b1-4)GlcNAc
# Method in brief: as §1
# Gal(b1-4)GlcNAc(b1-2)Man = molecular target: Gal(b1-4)GlcNAc(b1-2)Man
# Method in brief: as §1
# [3] = molecular target: Gal(b1-4)GlcNAc(b1-2)Man(a1-3)Man(b1-4)GlcNAc(b1-4)GlcNAc
# Method in brief: as §1
# [4] = molecular target: Gal(b1-4)GlcNAc(b1-2)Man(a1-3)[Gal(b1-4)GlcNAc(b1-2)Man(a1-6)]Man(b1-4)GlcNAc(b1-4)GlcNAc
# Method in brief: as §1
# [5] = molecular target: Gal(b1-4)GlcNAc(b1-2)Man(a1-3)[Gal(b1-4)GlcNAc(b1-2)Man(a1-6)]Man(b1-4)GlcNAc(b1-4)[Fuc(a1-6)]GlcNAc
# Method in brief: as §1
# [6] = molecular target: Gal(b1-4)GlcNAc(b1-2)Man(a1-3)[Gal(b1-4)GlcNAc(b1-2)Man(a1-6)][Gal(b1-4)GlcNAc(b1-4)]Man(b1-4)GlcNAc(b1-4)[Fuc(a1-6)]GlcNAc
# Method in brief: as §1
# [7] = molecular target: Gal(b1-4)GlcNAc(b1-2)Man(a1-3)[Gal(b1-4)GlcNAc(b1-2)Man(a1-6)][GlcNAc(b1-4)]Man(b1-4)GlcNAc(b1-4)[Fuc(a1-6)]GlcNAc
# Method in brief: as §1
# [8] = molecular target: Gal(b1-4)GlcNAc(b1-2)Man(a1-3)[GlcNAc(b1-2)Man(a1-6)]Man(b1-4)GlcNAc(b1-4)GlcNAc
# Method in brief: as §1
# [9] = molecular target: Gal(b1-4)GlcNAc(b1-2)Man(a1-3)[GlcNAc(b1-4)][Gal(b1-4)GlcNAc(b1-2)Man(a1-6)]Man(b1-4)GlcNAc(b1-4)GlcNAc
# Method in brief: as §1
# [10] = molecular target: Gal(b1-4)GlcNAc(b1-2)Man(a1-3)[Man(a1-6)]Man(b1-4)GlcNAc(b1-4)GlcNAc
# Method in brief: as §1
# [11] = molecular target: Gal(b1-4)GlcNAc(b1-2)Man(a1-6)Man(b1-4)GlcNAc(b1-4)GlcNAc
# Method in brief: as §1
# [12] = molecular target: Gal(b1-4)GlcNAc(b1-2)Man(a1-6)[GlcNAc(b1-2)Man(a1-3)]Man(b1-4)GlcNAc(b1-4)GlcNAc
# Method in brief: as §1
# [13] = molecular target: Gal(b1-4)GlcNAc(b1-2)Man(a1-6)[Man(a1-3)]Man(b1-4)GlcNAc(b1-4)GlcNAc
# Method in brief: as §1
# [14] = molecular target: Gal(b1-4)GlcNAc(b1-2)[Gal(b1-4)GlcNAc(b1-4)]Man(a1-3)[Gal(b1-4)GlcNAc(b1-2)Man(a1-6)]Man(b1-4)GlcNAc(b1-4)GlcNAc
# Method in brief: as §1
# [15] = molecular target: Gal(b1-4)GlcNAc(b1-2)[Gal(b1-4)GlcNAc(b1-4)]Man(a1-3)[Gal(b1-4)GlcNAc(b1-2)[Gal(b1-4)GlcNAc(b1-6)]Man(a1-6)]Man(b1-4)GlcNAc(b1-4)GlcNAc
# Method in brief: as §1
# [16] = molecular target: Gal(b1-4)GlcNAc(b1-2)[Gal(b1-4)GlcNAc(b1-4)]Man(a1-3)[GlcNAc(b1-4)][Gal(b1-4)GlcNAc(b1-2)Man(a1-6)]Man(b1-4)GlcNAc(b1-4)GlcNAc
# Method in brief: as §1
# [17] = molecular target: Gal(b1-4)GlcNAc(b1-2)[Gal(b1-4)GlcNAc(b1-4)]Man(a1-3)[GlcNAc(b1-4)][Gal(b1-4)GlcNAc(b1-2)[Gal(b1-4)GlcNAc(b1-6)]Man(a1-6)]Man(b1-4)GlcNAc(b1-4)GlcNAc
# Method in brief: as §1
# [18] = molecular target: Gal(b1-4)GlcNAc(b1-2)[Gal(b1-4)GlcNAc(b1-6)]Man(a1-6)[Gal(b1-4)GlcNAc(b1-2)Man(a1-3)]Man(b1-4)GlcNAc(b1-4)GlcNAc
# Method in brief: as §1
binder,measurement,setting,value
B1,glycan array binding signal (z-score),[1],-0.608
same,glycan array binding signal (z-score),Gal(b1-4)Glc,-0.22
same,glycan array binding signal (z-score),Gal(b1-4)Glc6S,-0.129
same,glycan array binding signal (z-score),Gal(b1-4)GlcNAc,-0.239
same,glycan array binding signal (z-score),[2],-0.548
same,glycan array binding signal (z-score),Gal(b1-4)GlcNAc(b1-2)Man,-0.533
same,glycan array binding signal (z-score),[3],0.116
same,glycan array binding signal (z-score),[4],0.231
same,glycan array binding signal (z-score),[5],0.132
same,glycan array binding signal (z-score),[6],-0.617
same,glycan array binding signal (z-score),[7],-0.574
same,glycan array binding signal (z-score),[8],0.078
same,glycan array binding signal (z-score),[9],-0.216
same,glycan array binding signal (z-score),[10],0.003
same,glycan array binding signal (z-score),[11],0.409
same,glycan array binding signal (z-score),[12],-0.169
same,glycan array binding signal (z-score),[13],-0.459
same,glycan array binding signal (z-score),[14],0.722
same,glycan array binding signal (z-score),[15],-0.644
same,glycan array binding signal (z-score),[16],0.094
same,glycan array binding signal (z-score),[17],-0.429
same,glycan array binding signal (z-score),[18],-0.248

# 2 records picked at random from the list so far:
binder,measurement,setting,value
B1,glycan array binding signal (z-score),[13],-0.459
same,glycan array binding signal (z-score),[6],-0.617
